This test deals with Wistar male rats. The test can be described thus: Diuretic activity. Format: in vivo. The conditions noted are these: Rattus norvegicus, po, 25 mg/kg orally, urine taken for 6 hours, relative value for control (100). How it is done: Wistar male rats weighing 150 to 300 g were used after fasting for 18 hours. […] The test was performed using 3 groups per test compound, and each group consists of 3 animals. The urine was metered by a measuring cylinder and electrolytes (Na^+ and K^+) in the urine were analyzed by flame photometer (model […]: Hitachi Ltd.). Parameters in Table 3 are represented by relative value for control.

Like-named read-outs stand apart in the source and are kept apart here.

Among the data in patent publication EP0417790B1, “S-triazolo[3,4-i]purine derivatives” (Kyowa Hakko Kogyo Co., Ltd., priority 1989, dated 1991) are response vs control in vivo values, retold here.

Turning to `NS(=O)(=O)c1cc(C(=O)O)c(NCc2ccco2)cc1Cl` [Furosemide, reference compound], the response vs control in vivo at 25 mg/kg (read-out: Excretion of K^+) was found to be 157%, the response vs control in vivo at 25 mg/kg (read-out: Excretion of Na^+) was determined as 164% and the response vs control in vivo at 25 mg/kg (read-out: Urine volume) amounted to 175%.
